According to the supplement of paper PMC3682954:
“And” between values parts separate entries of the source, which are not always exact repeats. Equal entries are not always repeated. Structures can show the parent of a compound that is named as a salt. ± gives the standard deviation of the averaged measurements. The list shows a part of the results. Many values rest on one well or one pass, so single values are uncertain.

Tested on: RAW 264.7
Assay: HMGB1-induced TNF-alpha production relative to HMGB1-stimulated control; higher = more TNF-alpha secretion (less inhibition)
Details: stimulus: HMGB1 5 ug/ml, 18 h
[1] = compound concentration: 1 ug/ml

Row | Structure (SMILES) | HMGB1-induced TNF-alpha production (compound concentration: 3 uM) | HMGB1-induced TNF-alpha production [1]
1 | C#CCOC(=O)C1=CCCN(C)C1 [Arecaidine propargyl ester hydrobromide] | 98.8% | –
2 | CC(C)NCC(O)c1ccc(N)c(C#N)c1 (stereo not drawn) [Cimaterol] | 60.6% | –
3 | CNCC(O)c1ccc(O)cc1 (stereo not drawn) | 77.6% and 93.3% | –
4 | NCC(CP(=O)(O)O)c1ccc(Cl)cc1 (stereo not drawn) [Phaclofen] | 111% | –
5 | CNC(C)(C)Cc1ccccc1 [Mephentermine hemisulfate] | 102% | –
6 | CNC(C)(C)Cc1ccccc1 | 94.5% | –
7 | CCOP(=S)(OCC)Oc1cc(C)nc(C(C)C)n1 | 82.6% | –
8 | C[C@]12CCC(=O)C(O)=C1CC[C@@H]1[C@@H]2CC[C@]2(C)C(=O)CC[C@@H]12 | 82.7 ± 6% | –
9 | C[C@]12CCC(=O)C(O)=C1CC[C@@H]1[C@@H]2CC[C@]2(C)C(=O)CC[C@@H]12 [Formestane] | 97.6 ± 20% | –
10 | c1ccc(C2CC2)c(OCC2=NCCN2)c1 [Cirazoline hydrochloride] | 75.7% | –
11 | c1ccc(C2CC2)c(OCC2=NCCN2)c1 [Cirazoline] | 102% | –
12 | CCCC(=O)OCC[N+](C)(C)C [Butyrylcholine] | 95.1% | –
13 | CN1[C@@H]2CC[C@H]1C[C@@H](OC(c1ccccc1)c1ccccc1N)C2 (stereo partly drawn) [Aminobenztropine] | 90.5% | –
14 | CCOP(=S)(OCC)Oc1nc(Cl)c(Cl)cc1Cl | 66.9% | –
15 | COP(=S)(OC)Oc1ccc(Sc2ccc(OP(=S)(OC)OC)cc2)cc1 | 87.1% | –
16 | CC(C)CC1C(=O)N2CCCC2C2(O)OC(NC(=O)C3C=C4c5cccc6[nH]cc(c56)CC4N(C)C3)(C(C)C)C(=O)N12 (stereo not drawn) [alpha-Ergocryptine] | – | 55%
17 | CC1=C(C2=C(C)C(=O)c3c(c(C=O)c(O)c(O)c3C(C)C)C2=O)C(=O)c2c(C=O)c(O)c(O)c(C(C)C)c2C1=O [Gossypolone] | – | 82.7%
18 | C[C@@H]1O[C@@H](O[C@H]2C[C@@H](O)[C@]3(CO)[C@H]4[C@H](O)C[C@]5(C)[C@@H]([C@@H]6COC(=O)C6)CC[C@]5(O)[C@@H]4CC[C@]3(O)C2)[C@H](O)[C@H](O)[C@H]1O [Dihydroouabain] | 76.5% | –
19 | CCCN1CCO[C@@H]2c3cc(O)ccc3OC[C@H]21 [S(+)-PD 128,907 hydrochloride] | 111% | –
20 | CCCN1CCO[C@@H]2c3cc(O)ccc3OC[C@H]21 (racemic) [(±)-PD 128,907 hydrochloride] | 76.2% | –
21 | c1ccc2c3c([nH]c2c1)CNCC3 | 97.5% | –
22 | CCCCCCCCCCCCCCCC[n+]1ccccc1 | 62.1% | –

Reprinted: nos. 9–20
Row | Structure (SMILES) | HMGB1-induced TNF-alpha production (compound concentration: 3 uM) | HMGB1-induced TNF-alpha production [1]
9 | C[C@]12CCC(=O)C(O)=C1CC[C@@H]1[C@@H]2CC[C@]2(C)C(=O)CC[C@@H]12 [Formestane] | 97.6 ± 20% | –
10 | c1ccc(C2CC2)c(OCC2=NCCN2)c1 [Cirazoline hydrochloride] | 75.7% | –
11 | c1ccc(C2CC2)c(OCC2=NCCN2)c1 [Cirazoline] | 102% | –
12 | CCCC(=O)OCC[N+](C)(C)C [Butyrylcholine] | 95.1% | –
13 | CN1[C@@H]2CC[C@H]1C[C@@H](OC(c1ccccc1)c1ccccc1N)C2 (stereo partly drawn) [Aminobenztropine] | 90.5% | –
14 | CCOP(=S)(OCC)Oc1nc(Cl)c(Cl)cc1Cl | 66.9% | –
15 | COP(=S)(OC)Oc1ccc(Sc2ccc(OP(=S)(OC)OC)cc2)cc1 | 87.1% | –
16 | CC(C)CC1C(=O)N2CCCC2C2(O)OC(NC(=O)C3C=C4c5cccc6[nH]cc(c56)CC4N(C)C3)(C(C)C)C(=O)N12 (stereo not drawn) [alpha-Ergocryptine] | – | 55%
17 | CC1=C(C2=C(C)C(=O)c3c(c(C=O)c(O)c(O)c3C(C)C)C2=O)C(=O)c2c(C=O)c(O)c(O)c(C(C)C)c2C1=O [Gossypolone] | – | 82.7%
18 | C[C@@H]1O[C@@H](O[C@H]2C[C@@H](O)[C@]3(CO)[C@H]4[C@H](O)C[C@]5(C)[C@@H]([C@@H]6COC(=O)C6)CC[C@]5(O)[C@@H]4CC[C@]3(O)C2)[C@H](O)[C@H](O)[C@H]1O [Dihydroouabain] | 76.5% | –
19 | CCCN1CCO[C@@H]2c3cc(O)ccc3OC[C@H]21 [S(+)-PD 128,907 hydrochloride] | 111% | –
20 | CCCN1CCO[C@@H]2c3cc(O)ccc3OC[C@H]21 (racemic) [(±)-PD 128,907 hydrochloride] | 76.2% | –

(listing goes on)

Row | Structure (SMILES) | HMGB1-induced TNF-alpha production (compound concentration: 3 uM) | HMGB1-induced TNF-alpha production [1]
23 | C=CCC1(C(C)CCC)C(=O)NC(=S)NC1=O (stereo not drawn) | 81.8% | –
24 | O=C(O)Cc1cnc[nH]1 [Imidazole-4-acetic acid hydrochloride] | 84.3% | –
25 | CNC(=O)Oc1ccccc1OC(C)C | 74.8% | –
26 | O=C(O)[C@@H]1CCN1 [L-azetidine-2-carboxylic acid] | 85.3% | –
27 | NCC(O)c1cccc(O)c1 (racemic) [DL-Norphenylephrine hydrochloride] | – | 82.5%
28 | CC(=O)NC1CCSC1=O (stereo not drawn) | 77.9% | –
29 | CC(=O)OCC1=C(C(=O)[O-])N2C(=O)[C@@H](NC(=O)CCC[C@@H](N)C(=O)[O-])[C@H]2SC1.[Zn+2] [Cephalosporin C zinc salt] | 88% | –
30 | CN1C(=O)CCS(=O)(=O)C1c1ccc(Cl)cc1 (stereo not drawn) | 80.7% | –
31 | CN1C(=O)CCS(=O)(=O)C1c1ccc(Cl)cc1 (stereo not drawn) [Chlormezanone] | 71.7 ± 7.2% | –
32 | C[C@]12COC(=O)C[C@@H]1CC[C@@H]1[C@@H]2CC[C@@]2(C)[C@H]1CC[C@]2(C)O [Oxandrolone] | 74.3% | –
33 | CCCn1c(C)c(C(=O)c2cccc3ccccc23)c2ccccc21 | 90.1% | –
34 | O=P1(N(CCCl)CCCl)NCCCO1 (stereo not drawn) [Cyclophosphamide] | 94.1 ± 27% | –
35 | O=P1(N(CCCl)CCCl)NCCCO1 (stereo not drawn) [Cyclophosphamide monohydrate] | 95.9% | –
36 | O=P1(N(CCCl)CCCl)NCCCO1 (stereo not drawn) | 82.9 ± 16% | –
37 | c1ccc2c(c1)sc1ccccc12 | 81.9 ± 5.7% | –
38 | O=C1C=CC(=O)C=C1 [p-Benzoquinone] | 97.3% | –
39 | COc1ccc2c(c1OC)C(=O)OC2C1c2cc3c(cc2CCN1C)OCO3 (single isomer, unassigned; (+)) [(+)-Hydrastine] | 101% | –
40 | O=CN1C[C@@H]2C[C@H](C1)c1cccc(=O)n1C2 | – | 72.8%
41 | C=C1C[C@@H]2[C@H](CC[C@]3(C)C(=O)CC[C@@H]23)[C@@]2(C)C=CC(=O)C=C12 [Exemestane] | 91.7% | –
42 | C=C1C[C@@H]2[C@H](CC[C@]3(C)C(=O)CC[C@@H]23)[C@@]2(C)C=CC(=O)C=C12 | 84.5 ± 3.7% | –
43 | O=C1c2ccccc2C(=O)N1CCN1CC2CC(C1)c1cccc(=O)n1C2 (stereo not drawn) | – | 67.8% and 77.4%
